According to publication doi:10.1101/377275:
Results are given in words; binding and its absence hold for the method and conditions named. In cells and extracts the contact can be indirect. Some binding calls cover weakened binding; strength is not graded here.

Sequences of proteins named here, by UniProt entry; tags and fusion partners are left off.
UniProt Q9WVL2: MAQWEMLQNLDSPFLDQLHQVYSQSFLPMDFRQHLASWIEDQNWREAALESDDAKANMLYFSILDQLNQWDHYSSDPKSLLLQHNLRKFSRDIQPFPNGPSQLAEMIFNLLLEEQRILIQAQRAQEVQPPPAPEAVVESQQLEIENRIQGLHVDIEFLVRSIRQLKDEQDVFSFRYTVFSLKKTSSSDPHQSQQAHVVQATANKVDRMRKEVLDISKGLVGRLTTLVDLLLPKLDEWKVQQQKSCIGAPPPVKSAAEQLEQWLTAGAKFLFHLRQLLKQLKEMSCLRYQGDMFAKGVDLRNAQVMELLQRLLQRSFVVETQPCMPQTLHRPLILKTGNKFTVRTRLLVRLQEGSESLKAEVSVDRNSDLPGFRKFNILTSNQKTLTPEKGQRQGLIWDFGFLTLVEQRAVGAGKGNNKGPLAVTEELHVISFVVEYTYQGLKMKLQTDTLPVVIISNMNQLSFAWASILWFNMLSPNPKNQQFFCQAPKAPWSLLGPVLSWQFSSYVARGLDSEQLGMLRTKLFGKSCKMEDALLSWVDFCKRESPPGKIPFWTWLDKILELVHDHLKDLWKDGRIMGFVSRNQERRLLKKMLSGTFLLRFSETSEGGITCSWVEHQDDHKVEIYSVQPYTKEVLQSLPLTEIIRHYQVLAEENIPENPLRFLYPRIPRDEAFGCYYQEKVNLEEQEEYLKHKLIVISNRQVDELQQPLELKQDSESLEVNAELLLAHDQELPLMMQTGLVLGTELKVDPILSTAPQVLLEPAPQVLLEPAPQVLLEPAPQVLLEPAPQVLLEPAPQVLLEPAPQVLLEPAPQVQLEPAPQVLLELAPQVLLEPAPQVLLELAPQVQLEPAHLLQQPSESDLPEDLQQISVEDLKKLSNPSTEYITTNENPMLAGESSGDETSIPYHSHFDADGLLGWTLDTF

Columns and labels:
[1] = biological target: STAT2 (mouse (endogenous in BMDM and Raw 264.7)) (UniProt Q9WVL2); assay: co-IP
[2] = biological target: T1, interferon regulatory factor 9 (IRF9) (mouse (endogenous in BMDM and Raw 264.7)), Q61179; assay: co-IP; details: remark: other sources report otherwise
T1 chain: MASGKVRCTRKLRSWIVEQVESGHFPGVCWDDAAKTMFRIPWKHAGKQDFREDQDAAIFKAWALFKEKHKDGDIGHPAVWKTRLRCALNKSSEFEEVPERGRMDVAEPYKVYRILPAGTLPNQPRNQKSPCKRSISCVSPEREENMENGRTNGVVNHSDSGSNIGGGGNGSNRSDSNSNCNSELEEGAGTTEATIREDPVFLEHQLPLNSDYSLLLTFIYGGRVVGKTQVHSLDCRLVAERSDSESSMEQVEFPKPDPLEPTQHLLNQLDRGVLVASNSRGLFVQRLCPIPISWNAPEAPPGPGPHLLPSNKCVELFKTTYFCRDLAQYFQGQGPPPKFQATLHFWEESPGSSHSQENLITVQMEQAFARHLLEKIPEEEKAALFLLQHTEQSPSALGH

B1: interferon regulatory factor 9 (IRF9) (protein, UniProt Q61179 1-399)
chain: T1 chain
binding [1]: binds

B2: STAT1, P42225 1-749 (protein)
chain: MSQWFELQQLDSKFLEQVHQLYDDSFPMEIRQYLAQWLEKQDWEHAAYDVSFATIRFHDLLSQLDDQYSRFSLENNFLLQHNIRKSKRNLQDNFQEDPVQMSMIIYNCLKEERKILENAQRFNQAQEGNIQNTVMLDKQKELDSKVRNVKDQVMCIEQEIKTLEELQDEYDFKCKTSQNREGEANGVAKSDQKQEQLLLHKMFLMLDNKRKEIIHKIRELLNSIELTQNTLINDELVEWKRRQQSACIGGPPNACLDQLQTWFTIVAETLQQIRQQLKKLEELEQKFTYEPDPITKNKQVLSDRTFLLFQQLIQSSFVVERQPCMPTHPQRPLVLKTGVQFTVKSRLLVKLQESNLLTKVKCHFDKDVNEKNTVKGFRKFNILGTHTKVMNMEESTNGSLAAELRHLQLKEQKNAGNRTNEGPLIVTEELHSLSFETQLCQPGLVIDLETTSLPVVVISNVSQLPSGWASILWYNMLVTEPRNLSFFLNPPCAWWSQLSEVLSWQFSSVTKRGLNADQLSMLGEKLLGPNAGPDGLIPWTRFCKENINDKNFSFWPWIDTILELIKNDLLCLWNDGCIMGFISKERERALLKDQQPGTFLLRFSESSREGAITFTWVERSQNGGEPDFHAVEPYTKKELSAVTFPDIIRNYKVMAAENIPENPLKYLYPNIDKDHAFGKYYSRPKEAPEPMELDDPKRTGYIKTELISVSEVHPSRLQTTDNLLPMSPEEFDEMSRIVGPEFDSMMSTV
binding [2]: no binding
